Assay [1] deals with T1, viperin (virus inhibitory protein, endoplasmic reticulum-associated, interferon-inducible) with N-terminal 3x-FLAG tag (human) (UniProt Q8WXG1).
T1 sequence: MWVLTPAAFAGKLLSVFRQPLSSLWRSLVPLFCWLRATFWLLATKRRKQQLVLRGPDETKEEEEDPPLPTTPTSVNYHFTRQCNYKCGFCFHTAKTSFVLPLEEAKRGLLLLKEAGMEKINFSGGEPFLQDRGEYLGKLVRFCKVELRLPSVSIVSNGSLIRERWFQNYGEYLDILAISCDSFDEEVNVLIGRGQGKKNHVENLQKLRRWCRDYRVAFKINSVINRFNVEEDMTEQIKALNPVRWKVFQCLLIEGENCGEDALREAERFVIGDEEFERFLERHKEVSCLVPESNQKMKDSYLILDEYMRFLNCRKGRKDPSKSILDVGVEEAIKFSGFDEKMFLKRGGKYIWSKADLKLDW
Briefly: affinity purification with mass spectrometry.

By UniProt entry, the sequences of proteins in these tests, tags left out. Residues count along the entry.
UniProt Q14534: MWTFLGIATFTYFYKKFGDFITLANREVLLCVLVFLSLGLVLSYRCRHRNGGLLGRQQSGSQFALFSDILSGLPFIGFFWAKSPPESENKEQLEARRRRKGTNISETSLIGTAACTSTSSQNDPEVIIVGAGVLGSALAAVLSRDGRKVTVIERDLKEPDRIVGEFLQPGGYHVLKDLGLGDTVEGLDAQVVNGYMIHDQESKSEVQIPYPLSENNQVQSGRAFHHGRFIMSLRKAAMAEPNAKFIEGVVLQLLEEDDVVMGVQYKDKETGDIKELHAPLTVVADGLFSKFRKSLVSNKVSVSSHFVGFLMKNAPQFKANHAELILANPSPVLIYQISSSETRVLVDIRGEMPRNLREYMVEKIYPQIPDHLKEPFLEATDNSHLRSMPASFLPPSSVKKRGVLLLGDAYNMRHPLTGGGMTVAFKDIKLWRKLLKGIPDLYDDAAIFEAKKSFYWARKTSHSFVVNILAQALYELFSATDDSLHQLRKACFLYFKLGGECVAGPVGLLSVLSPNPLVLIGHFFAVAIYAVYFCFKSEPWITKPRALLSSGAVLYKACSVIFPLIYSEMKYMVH
UniProt P40939, residues 37-763: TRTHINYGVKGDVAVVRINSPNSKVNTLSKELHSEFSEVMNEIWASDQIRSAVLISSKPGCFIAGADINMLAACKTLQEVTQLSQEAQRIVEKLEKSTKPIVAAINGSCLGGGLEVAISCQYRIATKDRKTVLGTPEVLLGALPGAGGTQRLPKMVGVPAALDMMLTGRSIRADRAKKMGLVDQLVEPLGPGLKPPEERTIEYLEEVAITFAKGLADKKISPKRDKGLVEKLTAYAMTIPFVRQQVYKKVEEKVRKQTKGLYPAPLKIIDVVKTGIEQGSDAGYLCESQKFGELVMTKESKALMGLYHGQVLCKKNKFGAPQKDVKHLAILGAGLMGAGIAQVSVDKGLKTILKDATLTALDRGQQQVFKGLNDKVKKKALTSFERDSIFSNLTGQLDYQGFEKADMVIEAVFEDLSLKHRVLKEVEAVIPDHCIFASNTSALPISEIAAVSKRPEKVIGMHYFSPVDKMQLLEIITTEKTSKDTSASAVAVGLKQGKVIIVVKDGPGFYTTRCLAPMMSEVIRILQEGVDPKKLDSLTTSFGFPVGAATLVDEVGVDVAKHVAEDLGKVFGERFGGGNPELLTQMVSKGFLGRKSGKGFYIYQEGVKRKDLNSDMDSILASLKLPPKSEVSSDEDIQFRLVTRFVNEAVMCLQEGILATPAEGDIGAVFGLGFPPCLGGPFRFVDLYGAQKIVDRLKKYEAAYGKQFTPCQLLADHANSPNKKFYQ

For assay [2], the target named is T2, viperin (virus inhibitory protein, endoplasmic reticulum-associated, interferon-inducible) with N-terminal 3x-FLAG tag (human), Q8WXG1.
T2 chain: T1 sequence
The experiment in a line: affinity purification with mass spectrometry. The following applies: remark: other sources report otherwise.

These are yes or no findings as the source states them, for the method shown. In cells and extracts the contact can be indirect. Here binding means that the protein was enriched with, or labelled near, the bait; the list need not be complete. For some assays here: No binding means not detected with the bait. Sequences can lack the tags named with a protein.

Regarding “squalene monooxygenase (endogenous) (from UniProt Q14534 1-574) (enzyme)”, in assay [1], the binding result was “binds”.

Regarding HADHA (from UniProt P40939 37-763), in assay [1], the binding entry was “binds”.

B1: farnesyl pyrophosphate synthase (enzyme, UniProt P14324 1-419)
chain: MPLSRWLRSVGVFLLPAPYWAPRERWLGSLRRPSLVHGYPVLAWHSARCWCQAWTEEPRALCSSLRMNGDQNSDVYAQEKQDFVQHFSQIVRVLTEDEMGHPEIGDAIARLKEVLEYNAIGGKYNRGLTVVVAFRELVEPRKQDADSLQRAWTVGWCVELLQAFFLVADDIMDSSLTRRGQICWYQKPGVGLDAINDANLLEACIYRLLKLYCREQPYYLNLIELFLQSSYQTEIGQTLDLLTAPQGNVDLVRFTEKRYKSIVKYKTAFYSFYLPIAAAMYMAGIDGEKEHANAKKILLEMGEFFQIQDDYLDLFGDPSVTGKIGTDIQDNKCSWLVVQCLQRATPEQYQILKENYGQKEAEKVARVKALYEELDLPAVFLQYEEDSYSHIMALIEQYAAPLPPAVFLGLARKIYKRRK
For the molecule B1, the binding result in assay [1] is recorded as “no binding”.

B2: lanosterol synthase (endogenous) (enzyme, UniProt P48449 1-732)
chain: MTEGTCLRRRGGPYKTEPATDLGRWRLNCERGRQTWTYLQDERAGREQTGLEAYALGLDTKNYFKDLPKAHTAFEGALNGMTFYVGLQAEDGHWTGDYGGPLFLLPGLLITCHVARIPLPAGYREEIVRYLRSVQLPDGGWGLHIEDKSTVFGTALNYVSLRILGVGPDDPDLVRARNILHKKGGAVAIPSWGKFWLAVLNVYSWEGLNTLFPEMWLFPDWAPAHPSTLWCHCRQVYLPMSYCYAVRLSAAEDPLVQSLRQELYVEDFASIDWLAQRNNVAPDELYTPHSWLLRVVYALLNLYEHHHSAHLRQRAVQKLYEHIVADDRFTKSISIGPISKTINMLVRWYVDGPASTAFQEHVSRIPDYLWMGLDGMKMQGTNGSQIWDTAFAIQALLEAGGHHRPEFSSCLQKAHEFLRLSQVPDNPPDYQKYYRQMRKGGFSFSTLDCGWIVSDCTAEALKAVLLLQEKCPHVTEHIPRERLCDAVAVLLNMRNPDGGFATYETKRGGHLLELLNPSEVFGDIMIDYTYVECTSAVMQALKYFHKRFPEHRAAEIRETLTQGLEFCRRQQRADGSWEGSWGVCFTYGTWFGLEAFACMGQTYRDGTACAEVSRACDFLLSRQMADGGWGEDFESCEERRYLQSAQSQIHNTCWAMMGLMAVRHPDIEAQERGVRCLLEKQLPNGDWPQENIAGVFNKSCAISYTSYRNIFPIWALGRFSQLYPERALAGHP
B2: in assay [1], the binding entry is recorded as “binds”.

B3: HADHB (mitochondrial trifunctional protein β-subunit), P55084 34-474 (protein)
chain: AAPAVQTKTKKTLAKPNIRNVVVVDGVRTPFLLSGTSYKDLMPHDLARAALTGLLHRTSVPKEVVDYIIFGTVIQEVKTSNVAREAALGAGFSDKTPAHTVTMACISANQAMTTGVGLIASGQCDVIVAGGVELMSDVPIRHSRKMRKLMLDLNKAKSMGQRLSLISKFRFNFLAPELPAVSEFSTSETMGHSADRLAAAFAVSRLEQDEYALRSHSLAKKAQDEGLLSDVVPFKVPGKDTVTKDNGIRPSSLEQMAKLKPAFIKPYGTVTAANSSFLTDGASAMLIMAEEKALAMGYKPKAYLRDFMYVSQDPKDQLLLGPTYATPKVLEKAGLTMNDIDAFEFHEAFSGQILANFKAMDSDWFAENYMGRKTKVGLPPLEKFNNWGGSLSLGHPFGATGCRLVMAAANRLRKEGGQYGLVAACAAGGQGHAMIVEAYPK
For the molecule B3, the binding entry in assay [2] is given as “binds”.

(Values after article doi:10.1101/2021.02.19.431989.)
